Results taken from the supplement of paper PMC10032668.
This is one part of the list. Only hits are listed; about a third recur on repeated control peptides.

Amino acid sequences for entries named in this document (tags omitted).
CALR, P27797, UniProt P27797, whole entry: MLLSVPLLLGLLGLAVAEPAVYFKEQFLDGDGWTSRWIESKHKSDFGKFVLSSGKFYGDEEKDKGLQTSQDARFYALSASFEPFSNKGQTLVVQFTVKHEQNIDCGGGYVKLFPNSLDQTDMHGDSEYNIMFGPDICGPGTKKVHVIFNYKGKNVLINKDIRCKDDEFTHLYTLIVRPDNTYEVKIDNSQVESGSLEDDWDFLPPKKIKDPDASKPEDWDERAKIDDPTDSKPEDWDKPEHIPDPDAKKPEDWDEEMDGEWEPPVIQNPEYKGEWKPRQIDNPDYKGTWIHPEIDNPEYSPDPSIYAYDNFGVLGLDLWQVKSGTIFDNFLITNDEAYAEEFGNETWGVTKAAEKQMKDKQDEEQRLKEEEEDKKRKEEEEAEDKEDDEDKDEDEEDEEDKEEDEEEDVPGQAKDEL
TUBB8, Q3ZCM7, UniProt Q3ZCM7, whole entry: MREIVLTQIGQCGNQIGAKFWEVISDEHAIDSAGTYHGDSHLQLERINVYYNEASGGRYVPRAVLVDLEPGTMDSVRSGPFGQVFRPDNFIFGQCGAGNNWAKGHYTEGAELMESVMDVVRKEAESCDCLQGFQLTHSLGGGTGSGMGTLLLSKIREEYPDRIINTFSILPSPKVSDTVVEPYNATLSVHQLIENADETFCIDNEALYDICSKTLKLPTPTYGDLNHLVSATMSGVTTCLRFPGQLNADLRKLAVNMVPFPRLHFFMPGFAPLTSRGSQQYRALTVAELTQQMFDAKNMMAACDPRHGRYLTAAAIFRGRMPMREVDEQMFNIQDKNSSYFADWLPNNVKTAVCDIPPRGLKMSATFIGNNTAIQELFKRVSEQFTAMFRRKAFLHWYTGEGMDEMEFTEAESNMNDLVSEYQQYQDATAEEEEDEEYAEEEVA

Experiments:
Test in all cases: PRISMA enrichment of interactor (LFQ) in peptide spot vs all other peptide spots (log2 fold change); higher = stronger / more specific binding of the interactor to the peptide
ANP32A, P39687 = biological target: ANP32A, P39687
Protocol: (§1)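 PRISMA: 15-aa overlapping tiles (offset 8 aa) of 60 microproteins, plus SOS1/GLUT1 control peptides, were spot-synthesized on cellulose membranes in triplicate. Membranes were incubated with benzonase-treated HEK293T lysate, and bound proteins were identified by LC-MS/MS with LFQ. Enrichment is the log2 fold change of each protein in one spot versus all other spots. Only interactors passing the significance cutoff are listed.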

HIST2H2BE, Q16778 = biological target: HIST2H2BE, Q16778
Protocol: as §1

LLPH, Q9BRT6 = biological target: LLPH, Q9BRT6
Protocol: as §1

MRPL37, Q9BZE1 = biological target: MRPL37, Q9BZE1
Protocol: as §1

SEMG1, P04279 = biological target: SEMG1, P04279
Protocol: as §1

SPART, Q8N0X7 = biological target: SPART, Q8N0X7
Protocol: as §1

WDR61, Q9GZS3 = biological target: WDR61, Q9GZS3
Protocol: as §1

XPO6, Q96QU8 = biological target: XPO6, Q96QU8
Protocol: as §1

XPO7, Q9UIA9 = biological target: XPO7, Q9UIA9
Protocol: as §1

ZNF638, Q14966 = biological target: ZNF638, Q14966
Protocol: as §1

ATG3, Q9NT62 = biological target: ATG3, Q9NT62
Protocol: as §1

BHMT, Q93088 = biological target: BHMT, Q93088
Protocol: as §1

DNM1L, O00429 = biological target: DNM1L, O00429
Protocol: as §1

EIF1AD, Q8N9N8 = biological target: EIF1AD, Q8N9N8
Protocol: as §1

HNRNPC, P07910 = biological target: HNRNPC, P07910
Protocol: as §1

NCL, P19338 = biological target: NCL, P19338
Protocol: as §1

PELP1, Q8IZL8 = biological target: PELP1, Q8IZL8
Protocol: as §1

PTMA, P06454 = biological target: PTMA, P06454
Protocol: as §1

PTMS, P20962 = biological target: PTMS, P20962
Protocol: as §1

PUS1, Q9Y606 = biological target: PUS1, Q9Y606
Protocol: as §1

RNASEH1, O60930 = biological target: RNASEH1, O60930
Protocol: as §1

SMIM12, Q96EX1 = biological target: SMIM12, Q96EX1
Protocol: as §1

SUGT1, Q9Y2Z0 = biological target: SUGT1, Q9Y2Z0
Protocol: as §1

SUPT4H1, P63272 = biological target: SUPT4H1, P63272
Protocol: as §1

SYMPK, Q92797 = biological target: SYMPK, Q92797
Protocol: as §1

YIF1B, Q5BJH7 = biological target: YIF1B, Q5BJH7
Protocol: as §1

ZNF771, Q7L3S4 = biological target: ZNF771, Q7L3S4
Protocol: as §1

ANP32B, Q92688 = biological target: ANP32B, Q92688
Protocol: as §1

CALR, P27797 = biological target: CALR, P27797
Protocol: as §1

HMGCL, P35914 = biological target: HMGCL, P35914
Protocol: as §1

IDH1, O75874 = biological target: IDH1, O75874
Protocol: as §1

KIFC1, Q9BW19 = biological target: KIFC1, Q9BW19
Protocol: as §1

MED11, Q9P086 = biological target: MED11, Q9P086
Protocol: as §1

RPLP1, P05386 = biological target: RPLP1, P05386
Protocol: as §1

RPS29, P62273 = biological target: RPS29, P62273
Protocol: as §1

TUBB8, Q3ZCM7 = biological target: TUBB8, Q3ZCM7
Protocol: as §1

B1: C5orf56 (peptide)
chain: GPGAATRAGRGGSTP
ANP32A, P39687
  PRISMA enrichment of interactor (log2): 5.38
HIST2H2BE, Q16778
  PRISMA enrichment of interactor (log2): 5.55
LLPH, Q9BRT6
  PRISMA enrichment of interactor (log2): 4.76
MRPL37, Q9BZE1
  PRISMA enrichment of interactor (log2): 4.5
SEMG1, P04279
  PRISMA enrichment of interactor (log2): 4.24
SPART, Q8N0X7
  PRISMA enrichment of interactor (log2): 4.04
WDR61, Q9GZS3
  PRISMA enrichment of interactor (log2): 5.29
XPO6, Q96QU8
  PRISMA enrichment of interactor (log2): 5.44
XPO7, Q9UIA9
  PRISMA enrichment of interactor (log2): 6.38
ZNF638, Q14966
  PRISMA enrichment of interactor (log2): 5.85

B2: NAV2-AS2_2 (peptide)
chain: SQAGKPLTPKAKMPK
ANP32A, P39687
  PRISMA enrichment of interactor (log2): 8.25
ATG3, Q9NT62
  PRISMA enrichment of interactor (log2): 4.65
BHMT, Q93088
  PRISMA enrichment of interactor (log2): 7.68
DNM1L, O00429
  PRISMA enrichment of interactor (log2): 6.43
EIF1AD, Q8N9N8
  PRISMA enrichment of interactor (log2): 4.12
HNRNPC, P07910
  PRISMA enrichment of interactor (log2): 5.14
NCL, P19338
  PRISMA enrichment of interactor (log2): 4.96
PELP1, Q8IZL8
  PRISMA enrichment of interactor (log2): 5.44
PTMA, P06454
  PRISMA enrichment of interactor (log2): 8.13
PTMS, P20962
  PRISMA enrichment of interactor (log2): 5.53
PUS1, Q9Y606
  PRISMA enrichment of interactor (log2): 5.59
RNASEH1, O60930
  PRISMA enrichment of interactor (log2): 4.09
SMIM12, Q96EX1
  PRISMA enrichment of interactor (log2): 3.61
SUGT1, Q9Y2Z0
  PRISMA enrichment of interactor (log2): 5.17
SUPT4H1, P63272
  PRISMA enrichment of interactor (log2): 5.82
SYMPK, Q92797
  PRISMA enrichment of interactor (log2): 4.31
YIF1B, Q5BJH7
  PRISMA enrichment of interactor (log2): 4.41
ZNF771, Q7L3S4
  PRISMA enrichment of interactor (log2): 4.46

B3: SNHG8 (peptide)
chain: TALPKRQRSQDIGRS
ANP32A, P39687
  PRISMA enrichment of interactor (log2): 6.31
ANP32B, Q92688
  PRISMA enrichment of interactor (log2): 6.83
CALR, P27797
  PRISMA enrichment of interactor (log2): 5.44
HMGCL, P35914
  PRISMA enrichment of interactor (log2): 4.07
IDH1, O75874
  PRISMA enrichment of interactor (log2): 4.5
KIFC1, Q9BW19
  PRISMA enrichment of interactor (log2): 5.9
MED11, Q9P086
  PRISMA enrichment of interactor (log2): 7.81
RPLP1, P05386
  PRISMA enrichment of interactor (log2): 6.36
RPS29, P62273
  PRISMA enrichment of interactor (log2): 4.66
TUBB8, Q3ZCM7
  PRISMA enrichment of interactor (log2): 4.42
